Values quoted from earlier work in patent US20200277646A1, “METHOD OF DETERMINING TERPENE-BASED BIOCONTROL AGENTS FOR CANNABIS AND HEMP” (priority 2019, published 2020).
Some of these results come from one statement about several compounds together. Some ranges recur; such a range may be that of the whole group of compounds.

Conditions: of the tissue treated with neat terpenes; cited from earlier work

SMILES | intercellular concentration
CC12CCC(CC1)C(C)(C)O2 [cineole] | 40-60%
C=CC(C)(O)CCC=C(C)CCC=C(C)C (centres unmarked) [nerolidol] | 40-60%
